Assay results taken from patent publication US8937155B2 (priority 2010, dated 2015).
Some of these results come from one statement about several compounds together. Ends that are not written are not given here. Peptide text beside a SMILES is read from it.

Each compound was assayed on HeLa cells (assay: Cytotoxicity assay (MTT, Cell Proliferation Kit I)). Conditions: HEK 293 and HepG2 cells, 600 μg/mL versus MIC against E. coli.
Type: cell-based

Row | Compound | non-toxic peptide concentration (600 μg/mL) relative to MIC-values against E. coli
1 | CC(C)C[C@H](NC(=O)[C@H](Cc1ccc(O)cc1)NC(=O)[C@@H]1CCCN1C(=O)[C@@H]1CCCN1C(=O)[C@H](CCCCN)NC(=O)[C@H](CC(=O)O)NC(=O)[C@@H](N)C(C)C)C(=O)N1CCC[C@H]1C(=O)N[C@@H](CCCNC(=N)N)C(=O)N1CCC[C@H]1C(=O)N[C@@H](CCCNC(=N)N)C(=O)N1CCC[C@H]1C(=O)N1CCC[C@H]1C(=O)N[C@@H](CCCNC(=N)N)C(=O)N[C@@H](CCCN)C(=O)N[C@H](C(=O)N[C@@H](Cc1ccc(O)cc1)C(=O)N[C@@H](CC(N)=O)C(=O)N[C@@H](CCCN)C(N)=O)[C@@H](C)O [SEQ ID NO. 2, VDKPPYLPRPRPPROTYNO-NH2] (HELM PEPTIDE1{V.D.K.P.P.Y.L.P.R.P.R.P.P.R.[Orn].T.Y.N.[Orn].[am]}$$$$V2.0; N-terminus assumed) | more than 100 fold
2 | CC(C)C[C@H](NC(=O)[C@H](Cc1ccc(O)cc1)NC(=O)[C@@H]1CCCN1C(=O)[C@@H]1CCCN1C(=O)[C@H](CCCCN)NC(=O)[C@H](CC(=O)O)NC(=O)[C@@H](N)C(C)C)C(=O)N1CCC[C@H]1C(=O)N[C@@H](CCCNC(=N)N)C(=O)N1CCC[C@H]1C(=O)N[C@@H](CCCNC(=N)N)C(=O)N1CCC[C@H]1C(=O)N1C[C@H](O)C[C@H]1C(=O)N[C@@H](CCCNC(=N)N)C(=O)N1C[C@H](O)C[C@H]1C(=O)N[C@H](C(=O)N[C@@H](Cc1ccc(O)cc1)C(=O)N[C@@H](CC(N)=O)C(=O)N[C@@H](CCCN)C(N)=O)[C@@H](C)O [SEQ ID NO. 3, VDKPPYLPRPRP-4tHyp-R-4tHyp-TYNO-NH2] (HELM PEPTIDE1{V.D.K.P.P.Y.L.P.R.P.R.P.[Hyp].R.[Hyp].T.Y.N.[Orn].[am]}$$$$V2.0; N-terminus assumed) | more than 100 fold
3 | VDKPPYLPRPRPPRRIYNR-NH2 [SEQ ID NO. 1, VDKPPYLPRPRPPRRIYNR-NH2, reference compound] | more than 100 fold
